The source of these data is PubChem BioAssay AID1458 (National Center for Advancing Translational Sciences (NCATS), 2008).

Screen size: about 210,000 compounds; about 5,900 (2.8%) were called active. Not shown: some 5% with an inconclusive outcome. The call rests on the fitted dose curve; in most records, active means well fitted activation curve with a large enough effect; inconclusive means small, poorly fitted or top-dose-only effect; inactive means no such curve, though single readings can be large or run the other way. The list shows a part of the results, in another mix than the full data. Where no call is shown, the source filed none.
Potency means the concentration at half of the fitted maximal effect.

The nature of this experiment: qHTS Assay for Enhancers of SMN2 Splice Variant Expression. Further: nearly all actives have a fitted effect of over 55% in size. On activity change, positive = activation: % of control where 0% means no effect. The settings on record: HEK293 SMN2-luciferase splicing reporter, luminescence, 30-36 h; activity change, positive = activation: at 46.1 µM (top of the series) unless noted. Put shortly:
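qHTS luciferase splicing reporter: luminescence rises when SMN2 exon 7 is included in transfected HEK293 cells. Compound exposure lasted 30-36 h at 37C, with 4.5 mM final sodium butyrate as control, followed by a ONE-Glo read.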
In general terms: In qHTS, concentration-response curves come from the screen itself.
Regarding `Cc1ccc(C(=O)O/N=C/c2c(N3CCOCC3)n(C)c3ccccc23)cc1`, the “activity change, positive = activation” value is inactive: -47.1%.
Turning to `O=C(Nc1cccnc1)c1cccs1`, the Potency is active: 8.91 µM.
As to `COc1ccc(OC(C)C(=O)N2CCN(c3ccccn3)CC2)cc1` (stereo not drawn), the activity change, positive = activation was determined as 36.6%.
For the compound `N=C1SCC(=O)N1c1nc(-c2ccccc2)cs1`, the Potency was active: 11.2 µM.
As to `C=CCC(NCc1ccco1)c1ccc(OC)cc1OC` (stereo not drawn), the activity change, positive = activation was 32.1%.
With `CCOc1ccc(NC(=S)NC(=O)c2c(Cl)c(C)nn2C)c([N+](=O)[O-])c1`, the activity change, positive = activation was 49%.
Turning to `O=C(CCCOc1ccc(Cl)cc1)N1CCCCC1`, the activity change, positive = activation was found to be 60.5%.
Turning to `Fc1ccc(N/N=C(/c2ccccc2)c2ccccn2)cc1`, the activity change, positive = activation was -35.9%.
Consider `CCC(O)(CC)C(=O)N=Nc1c(O)[nH]c2ccccc12`, for which the activity change, positive = activation amounted to 47.2%.
Consider `COc1ccc(C(=O)c2no[n+]([O-])c2C(=O)c2ccc(OC)cc2)cc1`, for which the “activity change, positive = activation” value was inactive: -95.1%.
With `COc1ccc(Nc2cc(C)nc(-n3nc(C)cc3C)n2)cc1`, the activity change, positive = activation was -62.3%.
As for `Cc1ccc(Cn2c(Cc3ccccc3)nc3ccccc32)cc1`, the Potency entry was “inactive”.
For the compound `CC1=CC(C)(C)N2C(=O)C3(SCC(=O)N3c3ccc(F)cc3)c3cc(C)cc1c32` (stereo not drawn), the activity change, positive = activation turned out to be 35.3%.
On the same count and under the same terms, the value for `Cc1ccc(C2CC2c2n[nH]c(=S)n2-c2ccc(Cl)cc2)cc1` (stereo not drawn) was 36.1%.
For `CCOc1ccccc1C1CC(=O)NC(C)=C1C(=O)OC1CCCCCC1` (stereo not drawn), the “activity change, positive = activation” value is inactive: -35.8%.
For `COc1ccc(-c2c(NC(=O)c3ccco3)n(C)c3ccccc3c2=O)cc1`, the activity change, positive = activation was found to be 70.2%.
Regarding `C=CCn1c(SCC(=O)Nc2sc(C)c(C)c2C(=O)OCC)nnc1-c1sc(N)nc1C`, the activity change, positive = activation was -74.4%.
The same measure, in the same setting: the value for `O=C(COc1ccc2c(c1)OCO2)Nc1ccc2c(c1)oc1ccccc12` was 39.7%.
With `Cc1cc(C(=O)Nc2c(C)nn(Cc3ccc(F)cc3)c2C)on1`, the activity change, positive = activation was -33.9%.
Consider `COC(=O)c1cc2oc3ccccc3c2n1Cc1nc(-c2cccc(Cl)c2)oc1C`, for which the activity change, positive = activation turned out to be 24.7%.
On to `COCCN1C=C2C(=O)C(C)(OC(=O)c3cccs3)C(=O)C=C2C=C1CCCC(=O)OC` (stereo not drawn), for which the activity change, positive = activation was 22.7% [at 9.22 µM].
Still for that read-out and setting: the value for `Cc1ccc(S(=O)(=O)N(C)C)cc1NC(=S)NNC(=O)C1CC1` was 45.9%; that for `C/C(=N\NC(=O)C(C)Oc1ccc([N+](=O)[O-])cc1)c1ccccn1` (stereo not drawn) was -82.6%; that for `COc1ccc(-c2cc(C(=O)Nc3ccccc3O)c3ccccc3n2)cc1OC` was inactive: -40.9%.
Regarding `Cc1cc(C)nc(-n2nc(C)cc2Nc2ccccc2)n1`, the activity change, positive = activation was -77.2%.
With `C=CCn1c(SCC(=O)N2CCc3ccccc3C2)nc2ccccc2c1=O`, the activity change, positive = activation was -42.8%.
For the compound `O=C(c1ccccc1)N1CCN(c2ncnc3sc4c(c23)CCC4)CC1`, the “activity change, positive = activation” value is inactive: -96.1%.
Turning to `COc1ccc2c(c1)c(C(=O)OCCN(C)C)c(C)n2C`, the activity change, positive = activation turned out to be 45.6%.
Take `COc1ccc(C(=O)Nc2cc(C(C)C)c(O)c(S(=O)(=O)c3ccc(OC)cc3)c2C)cc1`: the Potency is active: 15.8 µM.
As for `CCOc1ccc2nc(N3CCC(C(=O)N4CCN(c5ccccn5)CC4)CC3)sc2c1`, the “activity change, positive = activation” value was inactive: -86.4%.
`COc1ccc(-c2cc(C3CCN(Cc4ccc([N+](=O)[O-])cc4)CC3)[nH]n2)cc1`: the activity change, positive = activation is -74.9%.
As to `CCN1CCN(C(=O)CN(c2ccccc2C)S(C)(=O)=O)CC1`, the activity change, positive = activation was determined as 27.6%.
Turning to `CC(=O)C1=C(O)CC(c2ccccc2)CC1=NCCc1c(C)[nH]c2ccc(C)cc12` (stereo not drawn), the activity change, positive = activation is -23.1%.
With `Cc1sc2c(c1C)c(=O)n(CCc1ccccc1)c(=O)n2Cc1ccccc1Cl`, the activity change, positive = activation is 50%.
On to `CC(C)N=C(NC#N)SCc1ccccc1F`, for which the activity change, positive = activation was 35.8%.
In the case of `CCOC(=O)C1=C(C)NC2=C(C(=O)CCC2)C1c1cccnc1` (stereo not drawn), the activity change, positive = activation came to 54.5%.
Turning to `CCOc1cc(S(=O)(=O)Nc2cc(C)cc(C)c2)ccc1Cl`, the activity change, positive = activation is -32.4%.
Still for that read-out and setting: the value for `CCOc1ccccc1N(CC(=O)Nc1cc(OC)ccc1OC)S(C)(=O)=O` was 39.9%; that for `COc1ccc2c(Cl)c(C(=O)NCC3CCCO3)sc2c1Cl` (stereo not drawn) was 15.5%; that for `COc1ccccc1C1CC(=O)Nc2cc3c(cc21)OCCO3` (stereo not drawn) was -49.9%.
On to `O=C(CSc1nnc(-c2cccnc2)s1)Nc1ccnc2ccccc12`, for which the “activity change, positive = activation” value is inactive: -69.8%.
Turning to `COc1cccc(/C=C/C(=O)Nc2ccc3c(c2)OCCO3)c1OC`, the Potency was active: 2.82 µM.
Consider `CC1(C(=O)N(CC(=O)NC2CCCC2)Cc2ccco2)CC(=O)N=C2C=CC=CN21` (stereo not drawn), for which the activity change, positive = activation is 17.6%.
The same measure, in the same setting: the value for `O=C(Nc1ccc2c(c1)OCO2)C(c1ccccc1)N1CCN(C(=O)c2ccco2)CC1` (stereo not drawn) was 44%; that for `C=CCN(CC=C)S(=O)(=O)c1ccc(NC(=S)NC(=O)/C=C/c2cccc3ccccc23)cc1` was -44.4%; that for `CCOC(=O)C1=C(CNCc2ccc(C)cc2)NC(=O)NC1c1ccc(OC)cc1` (stereo not drawn) was 34%.
Consider `CNS(=O)(=O)c1cccc(C(=O)OCC(=O)Nc2ccc(-c3nc4ccc(C)cc4s3)cc2)c1`, for which the Potency was active: 1.12 µM.
In the case of `CC(C)/C=C1\CCCCC1N(C)C(=O)NC(C)C` (stereo not drawn), the activity change, positive = activation stood at 30.4%.
Regarding `O=C(COc1ccccc1Cl)N1CCN(c2ccc(F)cc2)CC1`, the activity change, positive = activation worked out at 21.2%.
As for `NS(=O)(=O)c1cccc(NC(=O)Cn2cnc3ccccc3c2=O)c1`, the activity change, positive = activation is 42.8%.
Still for that read-out and setting: the value for `Cc1cc(C(=O)COC(=O)c2ccc(O)cc2)c(C)n1CC1COc2ccccc2O1` (stereo not drawn) was inactive: -1.93%.
Turning to `O=C(CCCc1ccccc1)Nc1cccc(C(=O)O)c1`, the Potency is active: 1.58 µM.
As for `CCC(OC(=O)c1nsc(Cl)c1Cl)C(=O)NCc1ccco1` (stereo not drawn), the activity change, positive = activation was 31.3%.
`CC(C)(C)c1ccc(OCCn2ccccc2=O)cc1`: the Potency is active: 11.2 µM.
As for `Cc1ccc(NC(=O)C2(N(CC(C)C)C(=O)Cn3nnnc3N)CCCCC2)cc1`, the activity change, positive = activation was determined as 52.9%.
Still for that read-out and setting: the value for `CCOC(=O)c1c(-c2ccc(C)cc2)csc1NC(=O)c1cc(=O)c2cc(Cl)ccc2o1` was 24%; that for `CCOC(=O)c1sc(-c2ccc(OC)cc2)cc1N` was 45.5%; that for `CC1=CC(C)[C@H](/C=N/n2c(=O)[nH]c3c([nH]c4ccc(C)cc43)c2=O)C(C)C1` (stereo partly drawn) was inactive: -69.1%.
Take `O=C(Nc1cccc2cccnc12)c1cccc2ccccc12`: the “activity change, positive = activation” value was inactive: -23%.
For the compound `Cc1cccc(NC(=S)NC2CCCCCC2)c1C`, the activity change, positive = activation came out at 42%.
Regarding `CN1CCSc2ccc(C(=O)NCc3ccccc3F)cc21`, the activity change, positive = activation came to 35.5%.
For `COc1ccc(-c2cc3nc[nH]c(=O)c3s2)cc1`, the Potency is active: 12.6 µM.
For `COc1ccc(CC(=O)Nc2cccc(-c3ccc4nnc(C)n4n3)c2)cc1`, the activity change, positive = activation is 61.2%.
With `Cc1cc(N2CCN(C)CC2)nc2ccc(NC(=O)c3ccc4c(c3)OCO4)cc12`, the activity change, positive = activation turned out to be 59.1%.
On to `CCCn1c(SCC(=O)Nc2ccccc2Oc2ccccc2)n[nH]c1=O`, for which the “activity change, positive = activation” value was inactive: -33.2%.
For the compound `CCCc1ccc(-c2csc(NC(=O)Cc3cccs3)n2)cc1`, the “activity change, positive = activation” value is inactive: -91.3%.
Take `CCOc1ccc(NC(=O)CSc2nc(C)cc(C)n2)cc1`: the activity change, positive = activation was -32.9%.
For the compound `c1ccc2[nH]c(NCc3ccc4c(c3)OCO4)nc2c1`, the activity change, positive = activation is 105%.
